According to the supplement of paper PMC7666118:
The other results are listed elsewhere or left out.

Amino acid sequences for entries named in this document (tags omitted). A change or cut given only in a name is not applied to a line headed by its entry.
UniProt Q9Y3X0: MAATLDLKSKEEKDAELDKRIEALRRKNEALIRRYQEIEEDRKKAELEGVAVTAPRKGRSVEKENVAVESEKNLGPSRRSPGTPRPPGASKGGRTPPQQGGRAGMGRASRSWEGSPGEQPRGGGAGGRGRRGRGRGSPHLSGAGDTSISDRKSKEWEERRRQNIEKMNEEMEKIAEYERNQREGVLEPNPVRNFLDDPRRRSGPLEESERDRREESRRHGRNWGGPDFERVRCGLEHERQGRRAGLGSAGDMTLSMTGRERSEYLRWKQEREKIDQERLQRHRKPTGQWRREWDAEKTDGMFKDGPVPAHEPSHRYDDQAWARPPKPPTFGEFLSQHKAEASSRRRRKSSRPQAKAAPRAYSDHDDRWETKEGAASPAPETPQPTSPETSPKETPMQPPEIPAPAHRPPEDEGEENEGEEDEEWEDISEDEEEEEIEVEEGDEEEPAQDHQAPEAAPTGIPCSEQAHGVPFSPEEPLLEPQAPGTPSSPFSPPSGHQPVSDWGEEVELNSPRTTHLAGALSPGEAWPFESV
UniProt Q8WUW1: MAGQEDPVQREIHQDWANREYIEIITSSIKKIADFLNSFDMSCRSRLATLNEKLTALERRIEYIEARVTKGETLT
UniProt Q9P1F3: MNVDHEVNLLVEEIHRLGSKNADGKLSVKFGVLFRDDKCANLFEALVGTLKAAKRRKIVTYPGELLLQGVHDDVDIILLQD
UniProt Q96DZ1: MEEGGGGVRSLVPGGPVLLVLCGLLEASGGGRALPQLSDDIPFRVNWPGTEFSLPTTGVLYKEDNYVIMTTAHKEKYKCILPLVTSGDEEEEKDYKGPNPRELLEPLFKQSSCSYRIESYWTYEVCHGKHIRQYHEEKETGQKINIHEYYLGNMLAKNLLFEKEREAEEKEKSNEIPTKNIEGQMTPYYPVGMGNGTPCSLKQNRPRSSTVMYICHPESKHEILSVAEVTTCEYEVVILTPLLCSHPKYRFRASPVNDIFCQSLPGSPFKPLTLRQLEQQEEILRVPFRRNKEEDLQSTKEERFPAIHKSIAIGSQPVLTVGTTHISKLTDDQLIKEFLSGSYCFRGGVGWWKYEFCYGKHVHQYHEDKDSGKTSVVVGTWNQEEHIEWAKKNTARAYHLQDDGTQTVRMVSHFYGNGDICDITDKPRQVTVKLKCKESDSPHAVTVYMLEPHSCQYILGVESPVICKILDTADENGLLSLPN
UniProt P15529: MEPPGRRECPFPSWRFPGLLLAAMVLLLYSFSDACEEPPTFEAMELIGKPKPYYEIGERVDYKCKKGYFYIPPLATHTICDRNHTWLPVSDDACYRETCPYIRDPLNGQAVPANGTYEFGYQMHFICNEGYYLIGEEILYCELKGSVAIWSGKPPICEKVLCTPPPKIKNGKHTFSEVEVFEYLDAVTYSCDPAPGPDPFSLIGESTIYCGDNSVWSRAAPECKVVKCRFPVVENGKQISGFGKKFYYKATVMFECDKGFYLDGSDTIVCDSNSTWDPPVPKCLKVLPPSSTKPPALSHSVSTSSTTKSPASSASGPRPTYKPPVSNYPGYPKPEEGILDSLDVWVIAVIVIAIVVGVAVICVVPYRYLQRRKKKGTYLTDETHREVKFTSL
UniProt Q8NI60: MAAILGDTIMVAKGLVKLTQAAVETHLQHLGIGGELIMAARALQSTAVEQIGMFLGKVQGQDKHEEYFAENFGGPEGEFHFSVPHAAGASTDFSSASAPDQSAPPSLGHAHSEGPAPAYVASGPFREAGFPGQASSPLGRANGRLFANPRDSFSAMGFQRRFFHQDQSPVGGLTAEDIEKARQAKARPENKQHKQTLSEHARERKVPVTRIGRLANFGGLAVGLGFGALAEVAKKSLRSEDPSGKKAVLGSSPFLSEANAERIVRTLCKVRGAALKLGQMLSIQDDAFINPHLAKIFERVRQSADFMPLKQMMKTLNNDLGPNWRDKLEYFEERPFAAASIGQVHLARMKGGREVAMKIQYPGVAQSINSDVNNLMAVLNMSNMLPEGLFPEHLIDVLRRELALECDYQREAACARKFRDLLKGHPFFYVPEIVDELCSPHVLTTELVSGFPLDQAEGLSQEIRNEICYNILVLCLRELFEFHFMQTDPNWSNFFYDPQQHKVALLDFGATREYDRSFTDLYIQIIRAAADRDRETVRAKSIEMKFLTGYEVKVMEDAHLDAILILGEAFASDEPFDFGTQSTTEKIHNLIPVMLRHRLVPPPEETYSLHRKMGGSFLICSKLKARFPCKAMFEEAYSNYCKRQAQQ
UniProt P16383: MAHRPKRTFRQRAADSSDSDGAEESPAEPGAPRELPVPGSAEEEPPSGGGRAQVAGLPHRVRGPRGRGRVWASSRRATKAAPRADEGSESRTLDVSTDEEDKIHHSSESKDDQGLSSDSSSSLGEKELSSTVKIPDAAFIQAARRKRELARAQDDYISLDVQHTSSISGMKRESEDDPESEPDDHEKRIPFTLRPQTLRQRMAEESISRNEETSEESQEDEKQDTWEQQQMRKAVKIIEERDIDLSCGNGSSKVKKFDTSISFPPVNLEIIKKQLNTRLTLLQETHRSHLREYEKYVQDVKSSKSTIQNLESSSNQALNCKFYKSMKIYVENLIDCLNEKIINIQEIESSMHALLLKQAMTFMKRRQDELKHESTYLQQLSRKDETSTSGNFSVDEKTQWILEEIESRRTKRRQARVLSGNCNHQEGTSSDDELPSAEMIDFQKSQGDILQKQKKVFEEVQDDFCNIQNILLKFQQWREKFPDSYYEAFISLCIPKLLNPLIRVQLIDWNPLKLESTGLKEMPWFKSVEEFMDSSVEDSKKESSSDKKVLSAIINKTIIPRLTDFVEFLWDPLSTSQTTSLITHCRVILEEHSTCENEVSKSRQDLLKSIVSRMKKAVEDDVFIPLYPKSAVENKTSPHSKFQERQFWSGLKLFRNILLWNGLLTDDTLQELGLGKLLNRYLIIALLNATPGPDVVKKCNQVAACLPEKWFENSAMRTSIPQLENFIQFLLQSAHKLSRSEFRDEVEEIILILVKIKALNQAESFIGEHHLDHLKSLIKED
UniProt P47756, whole entry: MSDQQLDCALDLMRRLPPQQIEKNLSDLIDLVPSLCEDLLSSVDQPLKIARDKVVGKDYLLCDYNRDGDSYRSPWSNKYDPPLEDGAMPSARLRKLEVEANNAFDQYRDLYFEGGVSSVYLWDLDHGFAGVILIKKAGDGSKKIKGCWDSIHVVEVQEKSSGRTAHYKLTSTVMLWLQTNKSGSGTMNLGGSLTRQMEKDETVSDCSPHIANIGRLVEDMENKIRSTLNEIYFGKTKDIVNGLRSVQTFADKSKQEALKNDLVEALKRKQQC
UniProt O95873: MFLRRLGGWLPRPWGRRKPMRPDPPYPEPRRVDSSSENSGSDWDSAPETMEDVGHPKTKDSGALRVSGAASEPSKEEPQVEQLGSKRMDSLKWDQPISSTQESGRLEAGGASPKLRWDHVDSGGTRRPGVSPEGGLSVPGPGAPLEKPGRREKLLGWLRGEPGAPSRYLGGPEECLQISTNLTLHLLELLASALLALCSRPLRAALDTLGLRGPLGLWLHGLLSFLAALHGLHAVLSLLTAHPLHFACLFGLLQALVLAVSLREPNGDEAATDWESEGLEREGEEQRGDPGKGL
UniProt Q6ZWK4: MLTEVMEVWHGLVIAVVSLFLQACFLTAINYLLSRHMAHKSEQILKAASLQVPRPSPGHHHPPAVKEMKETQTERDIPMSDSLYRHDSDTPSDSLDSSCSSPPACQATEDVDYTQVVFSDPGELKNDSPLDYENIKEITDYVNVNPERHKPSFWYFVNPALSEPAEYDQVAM
UniProt Q8NE86: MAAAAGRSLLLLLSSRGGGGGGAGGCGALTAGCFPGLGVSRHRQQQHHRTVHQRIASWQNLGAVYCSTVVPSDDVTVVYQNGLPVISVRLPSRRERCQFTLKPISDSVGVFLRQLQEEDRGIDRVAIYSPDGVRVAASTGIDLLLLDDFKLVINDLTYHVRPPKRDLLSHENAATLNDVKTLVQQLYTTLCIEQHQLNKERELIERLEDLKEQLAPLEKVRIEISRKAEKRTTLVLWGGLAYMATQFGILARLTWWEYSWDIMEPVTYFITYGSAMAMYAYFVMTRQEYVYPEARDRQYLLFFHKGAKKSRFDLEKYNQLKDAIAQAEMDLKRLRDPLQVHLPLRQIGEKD
UniProt Q6IQ49: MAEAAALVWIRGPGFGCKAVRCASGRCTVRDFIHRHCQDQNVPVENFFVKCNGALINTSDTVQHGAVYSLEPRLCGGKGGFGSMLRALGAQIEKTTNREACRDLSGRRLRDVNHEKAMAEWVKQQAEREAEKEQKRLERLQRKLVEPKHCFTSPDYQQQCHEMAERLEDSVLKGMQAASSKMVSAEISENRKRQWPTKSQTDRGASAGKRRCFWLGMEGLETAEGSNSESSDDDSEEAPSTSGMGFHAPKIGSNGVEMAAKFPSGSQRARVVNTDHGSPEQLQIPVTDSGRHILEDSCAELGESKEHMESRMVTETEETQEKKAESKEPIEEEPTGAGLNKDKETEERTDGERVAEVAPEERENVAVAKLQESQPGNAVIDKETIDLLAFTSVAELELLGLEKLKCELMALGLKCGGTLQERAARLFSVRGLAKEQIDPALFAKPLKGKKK
UniProt P55212: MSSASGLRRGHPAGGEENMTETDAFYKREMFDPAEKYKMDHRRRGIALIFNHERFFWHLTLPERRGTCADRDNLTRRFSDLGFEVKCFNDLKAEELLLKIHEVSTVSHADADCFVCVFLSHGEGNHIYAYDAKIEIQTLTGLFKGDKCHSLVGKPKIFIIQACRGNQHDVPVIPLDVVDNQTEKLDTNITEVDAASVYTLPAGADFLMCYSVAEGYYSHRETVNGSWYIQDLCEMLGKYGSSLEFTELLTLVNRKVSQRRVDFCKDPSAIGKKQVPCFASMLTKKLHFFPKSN
UniProt Q5SWX8: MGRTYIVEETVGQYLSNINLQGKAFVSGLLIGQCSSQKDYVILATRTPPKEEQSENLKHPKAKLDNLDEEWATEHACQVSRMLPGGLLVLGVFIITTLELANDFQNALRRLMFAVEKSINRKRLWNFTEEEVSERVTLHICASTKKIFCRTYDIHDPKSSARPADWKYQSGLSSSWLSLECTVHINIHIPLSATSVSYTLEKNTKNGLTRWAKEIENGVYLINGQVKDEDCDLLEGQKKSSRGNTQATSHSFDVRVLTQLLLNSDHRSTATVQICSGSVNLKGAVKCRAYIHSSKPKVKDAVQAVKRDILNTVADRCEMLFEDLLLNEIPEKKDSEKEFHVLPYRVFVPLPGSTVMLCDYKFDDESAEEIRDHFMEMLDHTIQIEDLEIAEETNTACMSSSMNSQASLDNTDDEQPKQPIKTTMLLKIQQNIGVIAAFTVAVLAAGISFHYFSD
UniProt Q9NSI2: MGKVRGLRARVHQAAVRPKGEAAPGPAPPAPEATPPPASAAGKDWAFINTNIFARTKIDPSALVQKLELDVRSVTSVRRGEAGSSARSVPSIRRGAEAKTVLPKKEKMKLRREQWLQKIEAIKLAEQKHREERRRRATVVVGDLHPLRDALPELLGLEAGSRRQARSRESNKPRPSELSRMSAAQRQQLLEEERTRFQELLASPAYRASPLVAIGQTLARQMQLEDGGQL
UniProt Q9ULG6: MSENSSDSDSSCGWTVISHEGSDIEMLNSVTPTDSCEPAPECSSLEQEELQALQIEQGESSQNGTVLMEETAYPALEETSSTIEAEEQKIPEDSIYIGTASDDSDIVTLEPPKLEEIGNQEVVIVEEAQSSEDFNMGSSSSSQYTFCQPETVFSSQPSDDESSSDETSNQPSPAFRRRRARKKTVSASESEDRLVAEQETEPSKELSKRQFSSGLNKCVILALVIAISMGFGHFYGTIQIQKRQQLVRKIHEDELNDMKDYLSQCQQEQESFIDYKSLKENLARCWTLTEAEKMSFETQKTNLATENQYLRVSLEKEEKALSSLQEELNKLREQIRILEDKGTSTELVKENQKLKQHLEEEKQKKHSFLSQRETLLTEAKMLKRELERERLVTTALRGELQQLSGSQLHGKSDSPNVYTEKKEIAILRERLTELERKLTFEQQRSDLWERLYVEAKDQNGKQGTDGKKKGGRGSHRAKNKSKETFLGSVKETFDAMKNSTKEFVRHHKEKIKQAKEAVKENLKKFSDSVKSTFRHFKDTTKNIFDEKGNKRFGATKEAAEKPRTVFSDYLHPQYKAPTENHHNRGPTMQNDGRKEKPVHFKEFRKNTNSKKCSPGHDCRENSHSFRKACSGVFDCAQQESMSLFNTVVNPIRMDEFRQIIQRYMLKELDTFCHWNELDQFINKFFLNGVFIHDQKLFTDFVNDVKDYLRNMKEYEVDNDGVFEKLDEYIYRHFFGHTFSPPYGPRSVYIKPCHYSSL
UniProt Q9GZT6: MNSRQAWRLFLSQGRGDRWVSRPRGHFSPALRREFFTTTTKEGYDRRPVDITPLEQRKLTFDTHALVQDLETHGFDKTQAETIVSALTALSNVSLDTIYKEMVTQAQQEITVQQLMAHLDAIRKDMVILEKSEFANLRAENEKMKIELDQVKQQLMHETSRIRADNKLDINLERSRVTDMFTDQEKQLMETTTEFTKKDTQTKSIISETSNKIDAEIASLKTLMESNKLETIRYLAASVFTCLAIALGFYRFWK

Each target was assayed with COc1ccc(Cn2ccc3cc(C)c(C(=O)NO)cc32)cc1 (assay: dose-dependent thermal stabilisation call (2D-TPP, DLPTP, 10% FDR) (binary (1 = stabilised)); higher = stabilised by the compound). Conditions: system: HL-60 intact cells; concentration range 0.04-10 µM.
Experimental: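 2D thermal proteome profiling in intact HL-60 cells treated with BRD-3811 (0, 0.04, 0.29, 2, 10 uM) for 90 min at 37 C, then heated 3 min at one of 12 temperatures (42-63.9 C). Soluble protein was quantified by TMT10 MS. The value is the DLPTP call of the paper: dose-dependent thermal stabilisation over all temperatures at 10% FDR (F-test of a dose-response against a flat model); one experiment, one call per tested protein.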
C7ORF28A (UniProt P86791) was tested, and the “dose-dependent thermal stabilisation call” value was inactive: 0.
CCDC9 (UniProt Q9Y3X0) was tested, and the “dose-dependent thermal stabilisation call” value was inactive: 0.
For C3ORF10 (UniProt Q8WUW1), the “dose-dependent thermal stabilisation call” value was inactive: 0.
In the case of C6ORF115 (UniProt Q9P1F3), the “dose-dependent thermal stabilisation call” value is reported as inactive: 0.
In the case of CCDC51 (UniProt Q96ER9), the “dose-dependent thermal stabilisation call” value is reported as inactive: 0.
For C2ORF30 (UniProt Q96DZ1), the “dose-dependent thermal stabilisation call” value was inactive: 0.
CD46 (UniProt P15529) was tested, and the “dose-dependent thermal stabilisation call” value was inactive: 0.
For CA2 (UniProt P00918), the “dose-dependent thermal stabilisation call” value was inactive: 0.
CBWD1 (UniProt Q9BRT8) was tested, and the “dose-dependent thermal stabilisation call” value was inactive: 0.
CABC1 (UniProt Q8NI60) was tested, and the “dose-dependent thermal stabilisation call” value was inactive: 0.
For C4B (UniProt P0C0L5), the “dose-dependent thermal stabilisation call” value was inactive: 0.
In the case of CAMK2G (UniProt Q13555), the “dose-dependent thermal stabilisation call” value is reported as inactive: 0.
For CCNC (UniProt P24863), the “dose-dependent thermal stabilisation call” value was inactive: 0.
C2ORF3 (UniProt P16383) was tested, and the “dose-dependent thermal stabilisation call” value was inactive: 0.
In the case of CAP1 (UniProt Q01518), the “dose-dependent thermal stabilisation call” value is reported as inactive: 0.
CCT7 (UniProt Q99832) was tested, and the “dose-dependent thermal stabilisation call” value was inactive: 0.
For CAMSAP1 (UniProt Q5T5Y3), the “dose-dependent thermal stabilisation call” value was inactive: 0.
In the case of CBS (UniProt P35520), the “dose-dependent thermal stabilisation call” value is reported as inactive: 0.
For C4ORF41 (UniProt Q7Z392), the “dose-dependent thermal stabilisation call” value was inactive: 0.
CAPZB (UniProt P47756) was tested, and the “dose-dependent thermal stabilisation call” value was inactive: 0.
With C6ORF47 (UniProt O95873) the “dose-dependent thermal stabilisation call” value was inactive: 0.
With C1ORF186 (UniProt Q6ZWK4) the “dose-dependent thermal stabilisation call” value was inactive: 0.
For C1ORF144 (UniProt Q7Z422), the “dose-dependent thermal stabilisation call” value was inactive: 0.
In the case of C7ORF50 (UniProt Q9BRJ6), the “dose-dependent thermal stabilisation call” value is reported as inactive: 0.
CCDC109A (UniProt Q8NE86) was tested, and the “dose-dependent thermal stabilisation call” value was inactive: 0.
C1ORF55 (UniProt Q6IQ49) was tested, and the “dose-dependent thermal stabilisation call” value was inactive: 0.
In the case of CAPZA2 (UniProt P47755), the “dose-dependent thermal stabilisation call” value is reported as inactive: 0.
With C6ORF167 (UniProt Q6ZRQ5) the “dose-dependent thermal stabilisation call” value was inactive: 0.
In the case of CASP6 (UniProt P55212), the “dose-dependent thermal stabilisation call” value is reported as inactive: 0.
C1ORF27 (UniProt Q5SWX8) was tested, and the “dose-dependent thermal stabilisation call” value was inactive: 0.
For C21ORF70 (UniProt Q9NSI2), the “dose-dependent thermal stabilisation call” value was inactive: 0.
For CCPG1 (UniProt Q9ULG6), the “dose-dependent thermal stabilisation call” value was inactive: 0.
In the case of C2ORF18 (UniProt Q8N357), the “dose-dependent thermal stabilisation call” value is reported as inactive: 0.
For CCDC90B (UniProt Q9GZT6), the “dose-dependent thermal stabilisation call” value was inactive: 0.
With CALU (UniProt O43852) the “dose-dependent thermal stabilisation call” value was inactive: 0.
C4ORF43 (UniProt Q96EY4) was tested, and the “dose-dependent thermal stabilisation call” value was inactive: 0.
